Experimental data: paper PMC12370185
The other results are listed elsewhere or left out. For some of these results: At the low end of the ranking the order means little.

Assays:
Conditions in all cases: 10 mM Tris-Cl pH 7.5, 50 mM NaCl, 1 mM DTT, 0.25 mg/ml BSA, 2 mM MgCl2, 0.025% Nonidet P-40, 5% glycerol; 28 nM nucleosome library; 10 min on ice then 30 min …; high values mean tight binding; double strand, one strand shown
KLF4 + histone octamer = assay: EMSA with sequencing
OCT4 + histone octamer = assay: EMSA with sequencing
SOX2 + histone octamer [1] = assay: EMSA with sequencing
[2] = system: c-MYC + MAX + histone octamer; assay: Pioneer-seq (competitive nucleosome EMSA with sequencing)
[3] = system: c-MYC + MAX + histone octamer; assay: EMSA with sequencing
SOX2 + histone octamer [4] = assay: Pioneer-seq (competitive nucleosome EMSA with sequencing)

| Sequence | binding signal (log2 relative supershift) (KLF4 + histone octamer) | binding signal (log2 relative supershift) (OCT4 + histone octamer) | binding signal (log2 relative supershift) (SOX2 + histone octamer [1]) | binding signal (log2 relative supershift) [2] | binding signal (log2 relative supershift) [3] | binding signal (log2 relative supershift) (SOX2 + histone octamer [4]) |
| --- | --- | --- | --- | --- | --- | --- |
| GATGGACCCTATACGCGGCATTCTGGCATTGTTCCCCCACTTTCTTTCTTTCTAGTGATGTTCCCAGGATTCTGTTGTCAAGCATCTCCTCACCCCGCCCCTGTGAATACTTTCCTGCTTTGAAATGCAATGTTTATTACATTGTTTGGGTGTTGACTCTCCTCAAAGCCAATAGAATATGGGATTCATTAGGAAGATGATAAAACTGTGTGCCAGTCGGATAGTGTTCC | 1.35 | 0.231 | 1.77 | -0.102 |  |  |
| GATGGACCCTATACGCGGCTAATTATTCAAGAGCGGGGTGAAAGGAACGGAGTCTAGACTGAGGTCCAGCGGGCAAGTTCCGACAGGCTCCAGGGCCTTCTTTCCTGCCCTGCATCACCAGTGCAGTCAAAGGGCTCTGCATGGCCTTGAGACAAATTCTGTACAATGAGTTCAGCTGGGCGTGGCAGCAATAGCTTTAAACAACCTTTCTGCCAGTCGGATAGTGTTCC | 2.6 | 1.58 | 0.627 | -0.184 |  |  |
| GATGGACCCTATACGCGGCAAGTTGTTGGGAGGCTTCACTACCGTTCCTCTGAGTGGCTGCTGCGGCCTCCCCTCCCCCTGCGCCGTCGCGGGGAGCGCGCATAAGGCGCGCACTCGGGCTCGCCGGGACTCGCGCTCTCCCGGGACTGGCTCCCCTCTCTGCAAGCCGGGACTTGCCGCCGGTGTCCCTGAGGGCTCGCAGCTGTAACTTGCCAGTCGGATAGTGTTCC | 0.72 | 0.437 |  |  | 0.017 | -0.931 |
| GATGGACCCTATACGCGGCCCTTATTCATGCAACATCCCTAAACAAAAGGATTTACAAAAAAAAGCCACTAAGGCATAAGCTCCATGAGGGGAGGGGTCTGTGTTTATTTCTTGCTATATCCCAGGCACACAGCAGTGCTTATTGCCTGGGAGGCAAGCAATAAATATTTGCTGAATAAATTGCTTAGTATCAGATGGACTAGCTTTTGATGCCAGTCGGATAGTGTTCC | 1.2 | 0.334 | 1.52 | -0.458 |  |  |
